We go through 2 substances from article PMC7324161.

Amino acid sequences for entries named in this document (tags omitted). A change or cut given only in a name is not applied to a line headed by its entry.
UniProt Q8N6T7: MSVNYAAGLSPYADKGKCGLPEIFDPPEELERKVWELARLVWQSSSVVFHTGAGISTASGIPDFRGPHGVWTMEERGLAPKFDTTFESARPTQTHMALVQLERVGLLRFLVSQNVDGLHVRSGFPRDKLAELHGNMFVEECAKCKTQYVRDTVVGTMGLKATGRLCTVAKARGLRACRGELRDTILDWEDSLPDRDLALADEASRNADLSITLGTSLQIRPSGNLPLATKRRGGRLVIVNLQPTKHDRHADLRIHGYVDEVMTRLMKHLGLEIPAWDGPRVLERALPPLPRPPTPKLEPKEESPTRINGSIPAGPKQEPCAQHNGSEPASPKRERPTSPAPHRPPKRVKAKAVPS

In the assay the target is HA-SIRT6 (human) (UniProt Q8N6T7). As to the kind of experiment: co-IP; HEK293 cells co-overexpressing HA-SIRT6 and FLAG-tagged SIRT6 (WT or mutants) or FLAG-SIRT3; anti-HA immunoprecipitates blotted for FLAG.

These are yes or no findings as the source states them, for the method shown. In cells and extracts the contact can be indirect. Some binding calls cover weakened binding; strength is not graded here.

Take FLAG-SIRT6 (from UniProt Q8N6T7 1-355): the binding result is reported as “binds”.
As to “FLAG-SIRT6 K33R (from UniProt Q8N6T7 1-355)”, the binding entry was “binds”.
